{
  "sequences": {"note": "The chains behind the UniProt entries cited, without tags or fusion partners. Where a name states a change or a piece, a line headed by the entry shows the natural chain unless it says otherwise.", "UniProt Q9EPA7": "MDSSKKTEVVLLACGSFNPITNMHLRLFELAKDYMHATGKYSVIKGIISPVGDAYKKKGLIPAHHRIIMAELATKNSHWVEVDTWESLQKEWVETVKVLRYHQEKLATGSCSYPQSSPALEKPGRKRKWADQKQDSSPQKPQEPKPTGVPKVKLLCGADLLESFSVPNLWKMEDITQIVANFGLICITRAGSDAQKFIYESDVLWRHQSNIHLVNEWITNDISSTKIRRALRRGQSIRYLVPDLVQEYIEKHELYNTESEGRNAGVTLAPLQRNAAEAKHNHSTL", "UniProt Q8BKJ9": "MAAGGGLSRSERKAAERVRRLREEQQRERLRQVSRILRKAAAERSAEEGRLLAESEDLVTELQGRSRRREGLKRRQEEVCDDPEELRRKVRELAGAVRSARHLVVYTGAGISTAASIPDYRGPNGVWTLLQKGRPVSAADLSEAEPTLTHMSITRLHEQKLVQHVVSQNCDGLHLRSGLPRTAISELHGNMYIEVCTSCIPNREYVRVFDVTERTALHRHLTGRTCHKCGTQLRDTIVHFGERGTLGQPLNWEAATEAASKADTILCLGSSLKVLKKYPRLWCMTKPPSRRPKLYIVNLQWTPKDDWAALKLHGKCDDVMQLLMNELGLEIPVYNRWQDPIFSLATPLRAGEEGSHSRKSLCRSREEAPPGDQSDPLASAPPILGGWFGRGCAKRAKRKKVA"},
  "source": "paper PMC8492328",
  "key": {"[1]": {"target": "Flag-tagged NMNAT1 (mouse) (UniProt Q9EPA7)", "assay": "co-IP; Flag-tagged NMNAT1 (WT or K56R) immunoprecipitated from Hepa1.6 hepatocytes, Western blot of LSD1, SIRT1, SIRT7; cells with control siRNA or LSD1 siRNA (Figures 3G, 5C, 5D)"}, "[2]": {"target": "Flag-tagged mutant NMNAT1 (lysine to arginine, K56R) (mouse) (UniProt Q9EPA7)", "assay": "co-IP; Flag-tagged NMNAT1 (WT or K56R) immunoprecipitated from Hepa1.6 hepatocytes, Western blot of LSD1, SIRT1, SIRT7; cells with control siRNA or LSD1 siRNA (Figures 3G, 5C, 5D)"}},
  "note": "These are yes or no findings as the source states them, for the method shown. In cells and extracts the contact can be indirect. Some entries that bind do so weakly or less than the wild type.",
  "data": [
    {"substance": "SIRT7 (in hepatocytes) (from UniProt Q8BKJ9 1-402) (enzyme)", "values": [
      {"measurement": "binding", "setting": "[1]", "result": "binds"},
      {"measurement": "binding", "setting": "[2]", "result": "binds"}
    ]}
  ]
}
